Values from PubChem BioAssay AID1259254 (NCATS, 2017).
Aim: 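Finding genes that stop cells copying their DNA twice in one cycle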 (primary screen). Cell system: human HCT116 colorectal cancer cells. Knock-down reagent: single siRNA against human genes. Timing: 3 days. Read-out: 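Nuclei stained with Hoechst and imaged; cell-cycle phase assigned by DNA content; G2 share scaled per plate, non-targeting siRNA 0%, GMNN siRNA 100%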. Scale: G2 robust z-score and G2 cells, % of GMNN control: higher = more G2 cells, more excess DNA replication. Rule for the call: 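Active siRNAs have a G2 robust z of 5 or more median absolute deviations over the median, which in these data means about 38% or higher of GMNN control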.
Here is an unselected part of about 59,000 reagents. Over the whole deposit, about 1,550 (2.6%) got an active call. 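G2 share is only a proxy for re-replication; each gene was hit by three separate siRNAs, and active genes were retested.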 The numbers tell different reagents against one gene apart. Not all columns of the deposit are shown. No sequences are given here. Not given: the amount of reagent.

ANKRD7 #1 scored G2 robust z-score 0.444; G2 cells, % of GMNN control 6.09; inactive.
For ANKRD7 #2, the entry reads G2 robust z-score 0.415; G2 cells, % of GMNN control 5.89; inactive.
For ANKRD7 #3, the values are G2 robust z-score 3.94; G2 cells, % of GMNN control 30.7; inactive.
With knock-down of PPP1R12B #1 the results were G2 robust z-score 0.555; G2 cells, % of GMNN control 6.87; inactive.
Knock-down of PPP1R12B #2 came out at: G2 robust z-score -0.0609; G2 cells, % of GMNN control 2.54; inactive.
PPP1R12B #3 showed G2 robust z-score 1.26; G2 cells, % of GMNN control 11.8; inactive.
With knock-down of RAB39B #1 the results were G2 robust z-score -0.843; G2 cells, % of GMNN control -2.97; inactive.
With knock-down of RAB39B #2, the record shows G2 robust z-score 1.69; G2 cells, % of GMNN control 14.9; inactive.
RAB39B #3 scored G2 robust z-score 0.396; G2 cells, % of GMNN control 5.75; inactive.
For CNBP #1, the entry reads G2 robust z-score -1.42; G2 cells, % of GMNN control -6.99; inactive.
CNBP #2 scored G2 robust z-score 3.07; G2 cells, % of GMNN control 24.5; inactive.
Against CNBP #3, the entry reads G2 robust z-score 0.908; G2 cells, % of GMNN control 9.36; inactive.
Depletion of SPMAP1 #1 came out at: G2 robust z-score 2.26; G2 cells, % of GMNN control 18.8; inactive.
For SPMAP1 #2, the entry reads G2 robust z-score 0.342; G2 cells, % of GMNN control 5.37; inactive.
SPMAP1 #3 showed G2 robust z-score -0.434; G2 cells, % of GMNN control -0.0879; inactive.
TTC8 #1 scored G2 robust z-score -0.409; G2 cells, % of GMNN control 0.0918; inactive.
TTC8 #2 scored G2 robust z-score 0.801; G2 cells, % of GMNN control 8.6; inactive.
Silencing of TTC8 #3 came out at: G2 robust z-score 0.602; G2 cells, % of GMNN control 7.2; inactive.
After knock-down of PBX4 #1, the record shows G2 robust z-score 6.41; G2 cells, % of GMNN control 48.1; active.
Knock-down of PBX4 #2 gave: G2 robust z-score -0.485; G2 cells, % of GMNN control -0.445; inactive.
Silencing of PBX4 #3 resulted in: G2 robust z-score -0.339; G2 cells, % of GMNN control 0.581; inactive.
Silencing of LENG9 #1 resulted in: G2 robust z-score 3.38; G2 cells, % of GMNN control 26.8; inactive.
After knock-down of LENG9 #2 the results were G2 robust z-score -1.03; G2 cells, % of GMNN control -4.3; inactive.
Against LENG9 #3 the deposit lists G2 robust z-score 1.22; G2 cells, % of GMNN control 11.5; inactive.

A few values from the entries so far:
Result of ANKRD7 #3 under “G2 robust z-score”: 3.94
PBX4 #1, G2 cells, % of GMNN control = 48.1
